Results taken from PMC12839305.
No constants are given. Whether binding was seen depends on the method and setting.

Amino acid sequences for entries named in this document (tags omitted). Residues count along the entry.
UniProt P21401, residues 154-469: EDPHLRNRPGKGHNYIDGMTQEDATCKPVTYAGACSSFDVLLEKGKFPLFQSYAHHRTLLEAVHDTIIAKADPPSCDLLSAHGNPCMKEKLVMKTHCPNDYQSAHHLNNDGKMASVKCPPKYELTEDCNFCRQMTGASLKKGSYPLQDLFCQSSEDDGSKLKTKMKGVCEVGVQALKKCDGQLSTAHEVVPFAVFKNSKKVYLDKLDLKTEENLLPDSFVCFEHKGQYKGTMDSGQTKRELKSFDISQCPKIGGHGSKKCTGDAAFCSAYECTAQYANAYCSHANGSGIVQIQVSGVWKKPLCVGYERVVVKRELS
LRP1 cluster II (CL II, 786–1165 aa) (Q07954, residues 786-1165): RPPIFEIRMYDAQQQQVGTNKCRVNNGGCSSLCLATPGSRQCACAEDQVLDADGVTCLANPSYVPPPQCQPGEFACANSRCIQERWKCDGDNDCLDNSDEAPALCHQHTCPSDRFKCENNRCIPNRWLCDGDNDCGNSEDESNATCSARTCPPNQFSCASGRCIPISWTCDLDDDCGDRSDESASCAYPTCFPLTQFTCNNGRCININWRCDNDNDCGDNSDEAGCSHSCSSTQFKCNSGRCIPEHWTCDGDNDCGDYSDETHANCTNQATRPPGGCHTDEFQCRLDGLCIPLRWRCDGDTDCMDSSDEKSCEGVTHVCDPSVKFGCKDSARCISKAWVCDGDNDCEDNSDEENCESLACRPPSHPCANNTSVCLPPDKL
LRP1 cluster IV (CL IV, 3332–3779 aa) (Q07954, residues 3332-3779): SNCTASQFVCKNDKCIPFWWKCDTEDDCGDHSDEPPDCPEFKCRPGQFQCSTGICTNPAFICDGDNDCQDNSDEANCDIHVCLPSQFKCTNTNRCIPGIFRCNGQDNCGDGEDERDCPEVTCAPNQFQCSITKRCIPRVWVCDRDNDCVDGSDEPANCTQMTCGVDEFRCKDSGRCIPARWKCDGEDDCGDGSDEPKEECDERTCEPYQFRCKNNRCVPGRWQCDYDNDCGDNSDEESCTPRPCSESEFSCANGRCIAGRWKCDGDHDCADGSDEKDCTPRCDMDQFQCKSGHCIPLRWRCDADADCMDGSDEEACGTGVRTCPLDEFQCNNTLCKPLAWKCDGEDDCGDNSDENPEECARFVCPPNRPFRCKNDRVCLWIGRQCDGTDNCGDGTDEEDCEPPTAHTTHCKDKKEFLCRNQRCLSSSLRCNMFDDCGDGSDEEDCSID
LRP1 CL IV-C, repeats A29–A31 (3652–3778 aa) (Q07954, residues 3652-3778): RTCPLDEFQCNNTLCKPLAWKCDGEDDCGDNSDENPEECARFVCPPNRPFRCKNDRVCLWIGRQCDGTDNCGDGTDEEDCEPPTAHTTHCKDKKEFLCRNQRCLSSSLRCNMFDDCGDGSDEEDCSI

Columns and labels:
[1] = target: RVFV glycoprotein Gn head domain (154–469 aa) (Rift Valley fever virus) (UniProt P21401); assay: BLI; […]; 300 s association, 300 s dissociation; […], global 1:1 model; Octet RED96; both purified
[2] = target: RVFV glycoprotein Gn head domain (154–469 aa) (Rift Valley fever virus) (UniProt P21401); assay: BLI; both purified

Row | Substance | binding [1] | binding [2]
1 | LRP1 CL IV-C, repeats A29–A31 (3652–3778 aa) (from UniProt Q07954 3652-3778) (domain or fragment) | no binding | 
2 | LRP1 cluster II (CL II, 786–1165 aa) (from UniProt Q07954 786-1165) (domain or fragment) |  | no binding (condition: with 4 mM EGTA)
3 | LRP1 cluster IV (CL IV, 3332–3779 aa) (from UniProt Q07954 3332-3779) (domain or fragment) |  | no binding (condition: with 4 mM EGTA)
